Measurements taken from PubChem BioAssay AID1671190 (National Center for Advancing Translational Sciences (NCATS), 2021).
In all, about 580,000 compounds went through this assay and about 6,100 (1.1%) were called active. The shares of active, inactive and inconclusive entries below differ from those in the screen. Calls come from the whole dose curve; as a rule, active = well fitted inhibition curve with a large enough effect; inconclusive = small, poorly fitted or top-dose-only effect, or another doubt; inactive = no such curve, though single readings can be large or run the other way. A potency beside an inconclusive call is a rough fit, not a confirmed value.

By UniProt entry, the sequences of proteins in these tests, tags left out.
UniProt P18054, whole entry, looked up: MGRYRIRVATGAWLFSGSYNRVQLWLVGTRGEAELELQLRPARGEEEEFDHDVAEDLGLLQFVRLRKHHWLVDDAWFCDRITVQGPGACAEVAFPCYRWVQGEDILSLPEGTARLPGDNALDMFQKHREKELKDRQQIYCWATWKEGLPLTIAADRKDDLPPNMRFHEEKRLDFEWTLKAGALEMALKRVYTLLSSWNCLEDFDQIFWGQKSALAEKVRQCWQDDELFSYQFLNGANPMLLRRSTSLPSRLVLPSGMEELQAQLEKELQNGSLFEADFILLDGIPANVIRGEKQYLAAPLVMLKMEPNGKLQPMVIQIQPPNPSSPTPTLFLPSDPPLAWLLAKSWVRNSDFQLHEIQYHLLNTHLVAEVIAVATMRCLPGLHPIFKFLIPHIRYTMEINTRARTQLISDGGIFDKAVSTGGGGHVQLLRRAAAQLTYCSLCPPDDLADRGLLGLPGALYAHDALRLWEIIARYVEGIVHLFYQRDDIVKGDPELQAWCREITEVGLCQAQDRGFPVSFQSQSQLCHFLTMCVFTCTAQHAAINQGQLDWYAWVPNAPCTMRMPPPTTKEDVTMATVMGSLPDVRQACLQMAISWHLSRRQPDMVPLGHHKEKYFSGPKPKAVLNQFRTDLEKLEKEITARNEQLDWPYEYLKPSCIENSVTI

What follows are molecules tested against Polyunsaturated fatty acid lipoxygenase ALOX12 (Homo sapiens) (UniProt P18054) (assay: Primary qHTS assay for inhibitors of human arachidonate 12S-lipoxygenase (ALOX12): Round 2). Conditions: purified 12hLO, xylenol orange hydroperoxide absorbance; activity change, negative = inhibition: at 108 µM (top of the series) unless noted.
Source text: Assay Provider: Theodore R. Holman Ph.D. University of California, Santa Cruz, California Human lipoxygenase 12hLO is a member of the closely related lipoxygenase family of enzymes which catalyze the site-specific oxidation of arachidonic acid to various hormone precursor molecules and as such is a candidate for drug development in a variety of disease areas, such as cancer and inflammation. Inhibition of 12hLO activity was screened by utilizing arachidonic acid as a substrate. The extent of hydroperoxide product formation was measured by a secondary chromogenic reaction in which xylenol orange (XO, Sigma-Aldrich, cat. number 39,818-7) reacts with the ferric ions produced from the reaction between the hydroperoxide and ferrous ions. The Fe (III)-XO complex is characterized with red-shifted absorbance at 560 nm. A purified preparation of human 12hLO was supplied by Dr. Holman laboratory, University of California, Santa Cruz.
PROTOCOL TABLE SEQUENCE No. (e.g., 1, 2, 3, etc.); […] (e.g., Cells, Incubation, Reagent, etc.); VALUE; DESCRIPTION 1; Enzyme; 3 uL; 150 nM 12hLO enzyme solution dispensed in 1536-well Greiner black, clear bottom plates. 2; Compound; 23 nL; compounds and controls were added. 3; Incubate; 15 min; room temperature. 4; Substrate; 1 uL; 40 uM arachidonic acid (final concentration). 5; Incubate; 30 min; room temperature. 6; Reagent; 4 uL; Fe-XO solution was added to each well. 7; Incubation; 30 min; room temperature 8; Detector; absorbance; Read 1 at 405 nm absorbance using ViewLux (Perkin-Elmer) CCD imager. 9; Detector; absorbance; Read 2 at 573 nm absorbance using ViewLux (Perkin-Elmer) CCD imager. NOTES (numbers refer to sequence above) 1; 150 nM 12hLO (final concentration) in buffer solution (25 mM Hepes, 0.01% Triton X-100, pH 7.0) was dispensed in columns 1, 2, 5-48. Column 1 is neutral (100% activity). Buffer only was dispensed in columns 3 and 4 as no enzyme negative controls. The plates were covered with metal lids with gas-exchange holes. 2; Compounds were pin transferred via a Kalypsys Pin Tool (Wako USA) in column 5-48. Control compound was transferred in column 2, titration of nordihydroguaiaretic acid (NDGA, Sigma-Aldrich, N5023) with top concentration of 20 mM in DMSO then 1:3 dilution in duplicate. Dilution factor of 23 nL into 4 uL final assay volume. 3; Covered assay plates were incubated for 15 min at room temperature. 4; Substrate was added to start the reaction; 40 uM arachidonic acid (Sigma-Aldrich, St. Louis, MO) was dispensed throughout the plate. 6; Chromogenic detection reagent solution (divalent iron/xylenol orange, Fe-XO) was added to each well: 200 uM xylenol orange, 300 uM ferrous ammonium sulfate prepared freshly in 50 mM sulfuric acid. 8, 9; Two absorbance readouts were obtained at 405 nm and at 573 nm using a ViewLux high-throughput CCD plate imager (Perkin-Elmer). The 573 to 405 (Read 2 / Read 1) absorbance ratio was used to compute reaction progress.
% is set by controls: 0 for no effect and ±100 for the full control effect; potency is the fitted concentration of half-maximal effect.

SMILES	Potency	activity change, negative = inhibition
CC(C)CC(=O)N1CCC(N(CCc2ccccc2)Cc2ccccc2)CC1	inconclusive: 0.355 µM [inhibitor, full curve, poor fit]	–
Cc1ccc(C(CNS(=O)(=O)c2ccc(F)cc2C)N2CCN(C)CC2)cc1 (stereo not given)	inconclusive: 39.8 µM [inhibitor, partial curve]	–
O=C(C1Cc2ccccc2CN1C(=O)c1ccco1)N1CCN(c2ccccc2)CC1 (stereo not given)	inconclusive: 100 µM [inhibitor, single point]	–
O=C(Nc1ccccc1F)N1CCC(N2C(=O)C3(CCCCC3)C2c2ccccc2)CC1 (stereo not given)	inconclusive: 22.4 µM [inhibitor, full curve, poor fit]	–
CC(C)(C)c1ccc(C(=O)OCC(=O)Nc2cccc(S(=O)(=O)NC3=NCCC3)c2)cc1	–	inactive: -16.6%
CCC(=O)NC(c1ccc(OC)c(OC)c1)c1nccc2cc(OC)c(OC)cc12 (stereo not given)	–	inactive: 32.1%
CCOC(=O)C1CCN(c2ncnc3c2nnn3C)CC1	inconclusive: 224 µM [inhibitor, partial curve, poor fit]	–
O=c1[nH]c(=S)[nH]c2c1C(c1ccc(F)cc1)OC(C1CCCCC1)C2 (stereo not given)	inconclusive: 4.47 µM [inhibitor, full curve, poor fit]	–
O=C(O)C(c1c[nH]c2cc(Cl)ccc12)N1CCc2ccccc2C1 (stereo not given)	inconclusive: 39.8 µM [inhibitor, partial curve, poor fit]	–
CC(NC(=O)CNC(=O)c1ccc(N2CCCC2=O)cc1)c1ccc(Cl)c(Cl)c1 (stereo not given)	inconclusive: 79.4 µM [inhibitor, partial curve, poor fit]	–
O=c1oc2ccccc2cc1-c1csc(Nc2nc3c(F)cccc3s2)n1	–	inactive: -25.6%
CCCc1ccc(C(=O)N(CC#N)C2CC2)cc1	–	inactive: -4.62%
Cc1ccc2oc(C(=O)N3CCCCCC3)c(C)c2c1	–	inactive: -10.8%
CC(=NNC1=NCCN1)c1cnn(C2=NCCN2)c1C	inconclusive: 8.91 µM [inhibitor, full curve]	–
CC(C)NC(=O)c1ccc(-n2c(-c3ccccc3)cc3c2CCCCC3)cc1	–	inactive: -10.4%
O=C(COc1ccc2ccc(=O)oc2c1)NCc1cccs1	–	inactive: 25%
CSc1cccc(N2CC(C(=O)Nc3cccc(S(=O)(=O)N4CCCC4)c3)CC2=O)c1 (stereo not given)	active: 28.2 µM	–
Fc1cc(CSc2nccc(C(F)(F)F)n2)c2ncccc2c1	–	inactive: -17.7%
COc1ccc(NC(=O)N2CCCC(C(=O)NC(C)C)C2)cc1 (stereo not given)	inconclusive: 44.7 µM [inhibitor, partial curve, poor fit]	–
COc1ccc(Cl)cc1NC(=O)Cn1cc(C(=O)c2ccncc2)c(=O)c2cc(C)ccc21	inconclusive: 50.1 µM [inhibitor, partial curve, poor fit]	–
O=C(c1ccc2c(c1)OCO2)C1CCCN(C2CCN(CCc3ccccc3)CC2)C1 (stereo not given)	inconclusive: 31.6 µM [inhibitor, partial curve, poor fit]	–
COc1ccc(NC(=O)CSCc2ccc(Cl)cc2)c(OC)c1	inconclusive: 44.7 µM [inhibitor, single point]	–

Given field by field: part of the list above
O=C(Nc1ccccc1F)N1CCC(N2C(=O)C3(CCCCC3)C2c2ccccc2)CC1 (stereo not given)
  Potency: inconclusive: 22.4 µM [inhibitor, full curve, poor fit]
CCOC(=O)C1CCN(c2ncnc3c2nnn3C)CC1
  Potency: inconclusive: 224 µM [inhibitor, partial curve, poor fit]
O=C(O)C(c1c[nH]c2cc(Cl)ccc12)N1CCc2ccccc2C1 (stereo not given)
  Potency: inconclusive: 39.8 µM [inhibitor, partial curve, poor fit]
CSc1cccc(N2CC(C(=O)Nc3cccc(S(=O)(=O)N4CCCC4)c3)CC2=O)c1 (stereo not given)
  Potency: active: 28.2 µM

Additional results:

SMILES	Potency	activity change, negative = inhibition
FC(F)(F)c1ccc(Sc2n[nH]c(C(F)(F)F)n2)nc1	inconclusive: 112 µM [inhibitor, single point]	–
NC(=S)N/N=C/c1cccc(/C=N/NC(N)=S)c1	inconclusive: 112 µM [inhibitor, single point]	–
COc1ccc(CC(=O)Nc2sc3c(c2C(N)=O)CCCC3)cc1OC	inconclusive: 100 µM [inhibitor, single point]	–
COc1ccc(-c2noc(CCC(=O)N3CCC(c4cc(C)ccc4C)CC3)n2)cc1	inconclusive: 141 µM [inhibitor, single point]	–
CN(CC(=O)Nc1ccc(F)c(F)c1F)C(=O)CCc1nc2sc3c(c2c(=O)[nH]1)CCCC3	active: 17.8 µM	–
Cc1cc(C)c(NC(=O)CN2CCCN(c3ccc(C(F)(F)F)cn3)CC2)c(Cl)c1	inconclusive: 0.355 µM [inhibitor, full curve]	–
CCOc1ccc(-c2cc(OC(=O)c3ccccc3)c3c(C)oc(C)c3c(=O)c2)cc1	inconclusive: 89.1 µM [inhibitor, partial curve, poor fit]	–
COc1cc2nc(SCc3cccc(Cl)c3)n3nc(CCn4nc(C)cc4C)nc3c2cc1OC	inconclusive: 17.8 µM [inhibitor, full curve, poor fit]	–
Cc1ccc(-c2csc(N=C(N)N)n2)cc1	inconclusive: 89.1 µM [inhibitor, single point]	–
COc1ccc(-n2c(CNC(=O)c3c(-c4ccccc4)noc3C)nnc2SC)cc1	–	inactive: 8.79%
CCCCCC(=O)NNC(=S)NC(=O)c1cccc([N+](=O)[O-])c1	inconclusive: 50.1 µM [inhibitor, partial curve, poor fit]	–
Cc1ccccc1C(=O)Nc1cccc(C(=O)OCc2cc(=O)n3c4c(sc3n2)CCCC4)c1	inconclusive: 89.1 µM [inhibitor, partial curve, poor fit]	–
C#CCOc1c(Cl)cc(/C=N/NC(N)=S)cc1OCC	inconclusive: 11.2 µM [inhibitor, partial curve, poor fit]	–
OC1(CN2CCCCC2)CCN(Cc2cnc(-c3ccccn3)nc2)C1 (stereo not given)	–	inactive: 101%
COc1ccc(-c2nc3cc(NC(=O)c4ccccc4OC)ccc3o2)cc1Cl	inconclusive: 100 µM [inhibitor, single point]	–
CC(=O)Oc1ccc2occ(C(=O)c3ccccc3)c2c1	inconclusive: 35.5 µM [inhibitor, single point]	–
N#Cc1cccc(NC(=O)N2CC[C@@]3(CCCN(C(=O)c4ccncc4)C3)C2)c1	inconclusive: 20 µM [inhibitor, partial curve, poor fit]	–
CN(C)c1cc(N2CCCC(N)C2)ncn1 (stereo not given)	inconclusive: 5.62 µM [inhibitor, full curve, poor fit]	–
CCCCNC(=O)C1CCCN(S(=O)(=O)c2ccc(-n3cnnn3)cc2)C1 (stereo not given)	inconclusive: 141 µM [inhibitor, single point]	–
CC(C)NC(=O)NC[C@H]1O[C@@H](CC(=O)N(C)Cc2ccccc2)[C@H](O)[C@@H]1O	inconclusive: 25.1 µM [inhibitor, full curve]	–
COc1cccc(CNC(=O)c2cccc(N3CCCN(Cc4ccc(C)cc4)C3=O)c2)c1	–	inactive: -13.2%
OCCNc1nc(-c2ccccc2)nc2c1oc1ccccc12	inconclusive: 35.5 µM [inhibitor, partial curve, poor fit]	–

SMILES	Potency	activity change, negative = inhibition
Cc1ccc(Nc2nc(C(N)=O)c(NC(=O)CC34CC5CC(CC(C5)C3)C4)s2)cc1	inconclusive: 44.7 µM [inhibitor, partial curve, poor fit]	–
Cc1sc2nc3n(c(=O)c2c1C)CCCCC3	–	inactive: 142%
Cc1cc(C)c2c(CN3CCC(C)CC3)cc(=O)oc2c1C	inconclusive: 35.5 µM [inhibitor, partial curve, poor fit]	–
COc1ccc(-c2nc(Cn3c(SCc4ccc(C)cc4)nc4cccnc43)c(C)o2)cc1OC	–	inactive: 3.1%
CC(C)(C)OC(=O)N1CCCN(C(c2ccnc3ccccc23)c2nnnn2-c2ccc3c(c2)OCCO3)CC1 (stereo not given)	inconclusive: 50.1 µM [inhibitor, partial curve, poor fit]	–
CCn1c(O)c(/C=C2\C=Nc3ccccc32)sc1=Nc1ccccc1	–	inactive: -21.2%
COc1ccc(CNC(=S)Nc2ccccc2C)cc1	inconclusive: 20 µM [inhibitor, single point]	–
CCOC(=O)Cc1c(C)[nH]c(=S)[nH]c1=O	inconclusive: 6.31 µM [inhibitor, full curve]	–
CC(=O)Nc1ccc2nc(SCc3cccc(Br)c3)sc2c1	inconclusive: 44.7 µM [inhibitor, partial curve, poor fit]	–
Clc1ccc(-c2cc(-c3nnc4n3CCCCC4)c3ccccc3n2)cc1	–	inactive: 16.1%
Cc1ccc(-c2ccc(=O)n(C(C)C(=O)Nc3c(C)cc(C)cc3C)n2)cc1 (stereo not given)	inconclusive: 112 µM [inhibitor, single point]	–
C[C@@H]1CCCCO[C@@H](CN(C)CC2CCCCC2)[C@@H](C)CN([C@H](C)CO)C(=O)c2cc(NC(=O)Nc3ccc4c(c3)OCO4)ccc2O1	inconclusive: 44.7 µM [inhibitor, partial curve, poor fit]	–
CC(C)(C)c1ccc(-c2cc(C[C@H]3CNCC[C@H]3CC(=O)NCc3ccc(F)cc3)no2)cc1	active: 22.4 µM	–
Cn1c(Oc2ccc(-c3ccc(Br)cc3)cc2)c(C#N)c(=O)n(C)c1=O	active: 12.6 µM	–
CCC1CCCCN1CC(=O)N1CCCc2c1c(=O)oc1ccc(OCc3ccccc3)cc21 (stereo not given)	inconclusive: 44.7 µM [inhibitor, partial curve, poor fit]	–
S=c1[nH]nc(CCc2ccccc2)n1Cc1ccccc1	inconclusive: 3.16 µM [inhibitor, full curve, poor fit]	–
O=C(O)C1(Nc2ccc(Br)cc2)CCCC1	inconclusive: 50.1 µM [inhibitor, partial curve, poor fit]	–
Cc1cc(C)nc(N2C[C@H]3OC(=O)N(CCc4ccc(F)cc4)[C@H]3C2)n1	–	inactive: -1.88%
CCN1CCN(c2ccc(NS(=O)(=O)c3c(C)nc4sccn4c3=O)cc2Cl)CC1	–	inactive: -17.4%
COc1ccc(OC)c(CN2CCCC(C(=O)N3CCCCC3)C2)c1 (stereo not given)	inconclusive: 0.562 µM [inhibitor, full curve, poor fit]	–
O=c1c(CCc2ccccc2)nc2cnc(N3CCNCC3)nc2n1-c1ccccc1	inconclusive: 100 µM [inhibitor, partial curve, poor fit]	–
